{"source": "PubChem BioAssay AID652259 (Drosophila RNAi Screening Center, 2013)", "purpose": "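Identify new Wingless signalling regulators in fly cells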 (primary screen)", "cells": "Drosophila clone 8 imaginal disc epithelial cells", "knock-down reagent": "long dsRNA against Drosophila genes", "treatment": "pathway stimulated by co-transfected Wingless expression plasmid", "read-out": "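Dual luciferase reads per well after Wingless plasmid stimulation: reporter firefly light and Renilla control light; activity is firefly divided by Renilla, a ratio not deposited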", "reading the numbers": "firefly reporter light: higher = more Wg reporter light, before normalisation; Renilla control light: higher = more transfected or surviving cells", "call rule": "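a knock-down is a candidate when at least two out of four statistical tests show it departing from its plate mean; one test alone signals a weak candidate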", "meaning of the calls": "active = candidate regulator (raises or lowers reporter); inactive = not a candidate", "note": "The screen tested about 22,000 reagents; this is a random part of those that have a named target and a result. In the full data, 233 (1.1%) got an active call. 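Light values are raw, unnormalised plate reads; the ratio scores behind the reporter calls were not deposited.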 The record does not give: the amount of reagent, the time to read-out, the dose of the treatment."}
{"Target gene":"RpS15 (Ribosomal protein S15)","dsRNA":"DRSC07151","firefly reporter light, replicate 1":4473,"Renilla control light, replicate 1":1973,"Outcome":"inactive"}
{"Target gene":"CG11790","dsRNA":"DRSC14390","firefly reporter light, replicate 1":5059,"firefly reporter light, replicate 2":10217,"Renilla control light, replicate 1":1072,"Renilla control light, replicate 2":1739,"Outcome":"inactive"}
{"Target gene":"gdrd (goddard)","dsRNA":"DRSC10020","firefly reporter light, replicate 1":4008,"Renilla control light, replicate 1":1946,"Outcome":"inactive"}
{"Target gene":"CG6567","dsRNA":"DRSC16066","firefly reporter light, replicate 1":11424,"Renilla control light, replicate 1":2692,"Outcome":"inactive"}
{"Target gene":"sals (sarcomere length short)","dsRNA":"DRSC14925","firefly reporter light, replicate 1":12342,"Renilla control light, replicate 1":3346,"Outcome":"inactive"}
{"Target gene":"sals (sarcomere length short)","dsRNA":"DRSC16113","reporter change call, replicate 1":"Wg reporter activity lowered","firefly reporter light, replicate 1":3568,"Renilla control light, replicate 1":2902,"Outcome":"active"}
{"Target gene":"Alp9 (Alkaline phosphatase 9)","dsRNA":"DRSC10486","firefly reporter light, replicate 1":3668,"Renilla control light, replicate 1":985,"Outcome":"inactive"}
{"Target gene":"Syt7 (Synaptotagmin 7)","dsRNA":"DRSC17130","firefly reporter light, replicate 1":28504,"Renilla control light, replicate 1":25971,"Outcome":"inactive"}
{"Target gene":"Syt7 (Synaptotagmin 7)","dsRNA":"DRSC17159","firefly reporter light, replicate 1":22553,"Renilla control light, replicate 1":19621,"Outcome":"inactive"}
{"Target gene":"CG17650","dsRNA":"DRSC00510","firefly reporter light, replicate 1":2322,"firefly reporter light, replicate 2":8739,"Renilla control light, replicate 1":897,"Renilla control light, replicate 2":2438,"Outcome":"inactive"}

A run of entries from the list above, for reference:
{"Target gene":"gdrd (goddard)","dsRNA":"DRSC10020","firefly reporter light, replicate 1":4008,"Renilla control light, replicate 1":1946,"Outcome":"inactive"}
{"Target gene":"CG6567","dsRNA":"DRSC16066","firefly reporter light, replicate 1":11424,"Renilla control light, replicate 1":2692,"Outcome":"inactive"}
{"Target gene":"sals (sarcomere length short)","dsRNA":"DRSC14925","firefly reporter light, replicate 1":12342,"Renilla control light, replicate 1":3346,"Outcome":"inactive"}

Next entries follow:
{"Target gene":"Usp47 (Ubiquitin specific protease 47)","dsRNA":"DRSC11313","firefly reporter light, replicate 1":3250,"Renilla control light, replicate 1":1172,"Outcome":"inactive"}
{"Target gene":"pths (porthos)","dsRNA":"DRSC03171","firefly reporter light, replicate 1":4098,"firefly reporter light, replicate 2":4435,"Renilla control light, replicate 1":610,"Renilla control light, replicate 2":1940,"Outcome":"inactive"}
{"Target gene":"CG15073","dsRNA":"DRSC06506","firefly reporter light, replicate 1":11675,"Renilla control light, replicate 1":4085,"Outcome":"inactive"}
{"Target gene":"CG14545","dsRNA":"DRSC14889","firefly reporter light, replicate 1":17016,"Renilla control light, replicate 1":15986,"Outcome":"inactive"}
{"Target gene":"Ttd14 (TRPL translocation defect 14)","dsRNA":"DRSC06632","firefly reporter light, replicate 1":22231,"Renilla control light, replicate 1":6564,"Outcome":"inactive"}
{"Target gene":"Ttd14 (TRPL translocation defect 14)","dsRNA":"DRSC06942","reporter change call, replicate 1":"Wg reporter activity raised","firefly reporter light, replicate 1":7547,"Renilla control light, replicate 1":2896,"Outcome":"inactive"}
{"Target gene":"dgt5 (dim gamma-tubulin 5)","dsRNA":"DRSC07280","firefly reporter light, replicate 1":5649,"Renilla control light, replicate 1":2032,"Outcome":"inactive"}
